Hit rate of the full screen: of about 31,000 sequences, about 1,400 (4.5%) were called active.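 The calls were made as follows: active = median seed-adjusted z-score above 1 or below -1; inactive = the rest.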 The list shows a part of the results.

The experiment is described as follows: Novel Modifiers of Survival Motor Neuron (SMN) Protein: Gene Identification via Genome-wide siRNA Screen.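 Also: luminescence tracks full-length SMN protein made from the SMN2 reporter.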 The note with it: HEK293T SMN2-luciferase reporter, siRNA knockdown, 72 h; actives lie on both sides. The method, boiled down:
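Genome-wide siRNA screen (10418 genes, 3 siRNAs each, 1 pmol per well) by reverse transfection in HEK293T cells stably carrying an SMN2-luciferase reporter; luminescence after 72 hours, normalized to negative-control siRNA, log10-transformed, MAD-scored.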
On the technique in general: A reporter such as luciferase makes a cellular process visible.
Regarding GAGCUAUAGUAAUUGCUCUTT against MIF4GD, the median seed-adjusted z-score is inactive: 0.373.

For the sequence GGAUGAUGAGUCAAACAAATT against ZHX3, the median seed-adjusted z-score is inactive: -0.0916.

For CAGUGUUCGUUCAACCCUATT against ZNF665, the median seed-adjusted z-score was active: 1.13.

In the case of CCUUGUUUCGGACUAUAGATT against CFLAR, the median seed-adjusted z-score was inactive: -0.413.

In the case of CUGAUGAUCAUAAUAGUAATT against MPZL2, the median seed-adjusted z-score was inactive: -0.0172.

As to GGACAGUGAGCUUGCAGAATT against TTC7A, the median seed-adjusted z-score is inactive: -0.303.

For the sequence CCUCAUUCAUGACCGAAGATT against TAT, the median seed-adjusted z-score is inactive: 0.257.

For GGACUUUGAGGAAACGGAATT against BRD8, the median seed-adjusted z-score is inactive: -0.133.

As to GCAUCCUCCUGAUGGUACATT against MPI, the median seed-adjusted z-score is inactive: -0.526.

In the case of CAGUCAAACCGUACAAGAATT against SRRM1, the median seed-adjusted z-score was inactive: -0.861.

GGUGUUUGAUAUUCGAAUUTT against USP40: the median seed-adjusted z-score was inactive: 0.00437.

For CGUCCAUCCUGUACGGCAATT against ALPI, the median seed-adjusted z-score was inactive: 0.

Regarding GGACCACCACAAUUCGCAUTT against PCDHB5, the median seed-adjusted z-score is inactive: 0.

Consider CACCAGCGACGGGAUCUUATT against RHOBTB2, for which the median seed-adjusted z-score is inactive: -0.139.

CAAUGGAGAUCUGCCUCAATT against PLD3: the median seed-adjusted z-score was inactive: 0.066.

For GUAUGACCAGUGUUUGACATT against GALNT7, the median seed-adjusted z-score was inactive: -0.63.

In the case of GAGUGUUACCUAUAGAACATT against ZNF559, the median seed-adjusted z-score is inactive: -0.0208.

With CAUUAUCUAUUCUAGACAATT against TTC18, the median seed-adjusted z-score was active: -1.15.

As to GGCUGUUCACAAUAGAUCUTT against FLT3, the median seed-adjusted z-score is inactive: 0.418.

In the case of GGACUUUGCUGCCUAAAUUTT against PIP5K1A, the median seed-adjusted z-score is inactive: 0.0924.

CCAUACGAGUGGUGAGAAATT against RASSF2: the median seed-adjusted z-score is inactive: -0.649.

Take GGAUGUAUUGUCGCCUGUATT against RENBP: the median seed-adjusted z-score was inactive: 0.587.

As to GGUUCUUGGGUGAAGGACATT against CHGB, the median seed-adjusted z-score is active: -1.29.

With CAUUGGAAACCAGAGCUUUTT against CPN2, the median seed-adjusted z-score is inactive: 0.0491.

Consider GCUCCUCUGUUGAUAUGCATT against ZNF786, for which the median seed-adjusted z-score is inactive: -0.518.

Take AAAGUGGAUUGCACACAGATT against TGFB1I1: the median seed-adjusted z-score was inactive: 0.887.

As to CCCUAUCGAUGUAAUCUAUTT against ZFP90, the median seed-adjusted z-score is inactive: 0.

As to GCAGAUCUCAUGUCCUCUATT against FPGS, the median seed-adjusted z-score was inactive: -0.853.

CCCAGUUCCUAGACUGUAUTT against MTMR8: the median seed-adjusted z-score was inactive: -0.416.

As to GCUACAUCUUUAUAAGGGATT against IL12RB2, the median seed-adjusted z-score is inactive: 0.368.

Regarding GGUUAUCCUUUGCCCAGCATT against ACTL7A, the median seed-adjusted z-score was active: 1.1.

Take CAGCUUACAAUACAUCAAATT against ZNF7: the median seed-adjusted z-score was inactive: 0.

As to GGUCUUCAGAUGAGCAGAATT against COQ9, the median seed-adjusted z-score was inactive: -0.787.

Turning to CGUCGUACAAGUGAACAAATT against CACNA1A, the median seed-adjusted z-score was inactive: -0.467.

Consider GGGAUUCCCUUGGAGGUAATT against KIF15, for which the median seed-adjusted z-score was inactive: -0.873.

Turning to GCAUCUCCUUUUACAAUGUTT against MEFV, the median seed-adjusted z-score is inactive: 0.

Turning to AGGUUACAGAGGACUCAGATT against MZF1, the median seed-adjusted z-score was inactive: 0.215.

On to AAACGAGACUACUUCCUUATT against TUBGCP6, for which the median seed-adjusted z-score is inactive: 0.

For GAGACUAUAUCUACAUGAATT against SLITRK3, the median seed-adjusted z-score was inactive: -0.564.

GAAUCGGCAGUGACAGGAATT against NPR3: the median seed-adjusted z-score was inactive: -0.436.

CCGGAUGGGUGUUUGAGAATT against LCN6: the median seed-adjusted z-score is inactive: 0.584.

For the sequence GCUAAGAACAUGUAUGGAUTT against KIF23, the median seed-adjusted z-score is inactive: -0.449.

With GCAUGGACUUAAAAGUGGATT against GFPT2, the median seed-adjusted z-score was inactive: 0.412.

Take GAUGGAACAUGUACGGUUATT against KLHL2: the median seed-adjusted z-score was inactive: 0.

In the case of GAAACCAGCUCGAAUAUAUTT against ATP5C1, the median seed-adjusted z-score is inactive: -0.0179.

As to GCCUAACCGAAGCAUAUAATT against ACOX1, the median seed-adjusted z-score was inactive: -0.897.

GCUCCAACCAGACAACAAATT against ZDHHC14: the median seed-adjusted z-score was inactive: 0.312.

In the case of GACUAUAACUUCCCGAAAATT against SYT11, the median seed-adjusted z-score was inactive: 0.29.

With CACUCCAGAUGCUACAAAATT against PGLYRP2, the median seed-adjusted z-score was inactive: -0.697.

Take CGGUGACCAUCAAAUCUGUTT against TMED4: the median seed-adjusted z-score was inactive: -0.895.

Consider GGGUCGAUGAAGAAUAUCATT against PHKA1, for which the median seed-adjusted z-score is inactive: 0.286.

Consider GCAAUUUGGUUCUAUACCATT against SLC2A9, for which the median seed-adjusted z-score is inactive: 0.216.

Turning to GGAAUACUUAAGUCAGAUATT against PLSCR2, the median seed-adjusted z-score is inactive: 0.

Take GCAUGGGAAUCAUUGUGCUTT against PPIL1: the median seed-adjusted z-score was inactive: 0.166.

On to GGACUGUCUUGAGAAAACATT against RCAN1, for which the median seed-adjusted z-score was inactive: -0.000195.

Turning to GCACGGAGAUUUUGGUCAATT against CNTN2, the median seed-adjusted z-score was inactive: 0.

For CAAACUGAACAGAAGAAUUTT against KLK5, the median seed-adjusted z-score was inactive: 0.

As for GGCUCGAUUUAAUUGUUCATT against DDX20, the median seed-adjusted z-score is inactive: -0.0137.

Take CGGAUUCAUUUGUGACUAUTT against PLS3: the median seed-adjusted z-score was inactive: -0.167.

For the sequence GUGUAUGAGUUUAGAGUCATT against EZH2, the median seed-adjusted z-score is inactive: 0.313.

Consider GAGUUCGGCUGGUACAGUUTT against CASK, for which the median seed-adjusted z-score was inactive: -0.422.

For the sequence GUCGCUUCGUCAAGAAAGATT against KCNJ14, the median seed-adjusted z-score was inactive: -0.526.

Regarding CCAUUAUUGCUGCCCGGAATT against PGM5, the median seed-adjusted z-score is inactive: -0.0543.

With ACUGACUGCUUGACCUUUATT against PVRL4, the median seed-adjusted z-score was inactive: -0.266.

With CCUGUACUGGGUUAUUUUUTT against KCNJ11, the median seed-adjusted z-score was inactive: -0.567.

On to GCAGAUCAACUCACAAUGATT against MXD1, for which the median seed-adjusted z-score is inactive: -0.763.

Regarding CCUCAUUGAUAACACUAAATT against GBP2, the median seed-adjusted z-score is inactive: -0.263.

GCCUUCGGAUCCUAACAAATT against NCOA6: the median seed-adjusted z-score is inactive: -0.0197.

As for GGUCUGCAAGAGACAAUUATT against LEF1, the median seed-adjusted z-score is inactive: 0.808.

The record behind these values is PubChem BioAssay AID1347426 (Functional Genomics Laboratory (NCATS/FGL), 2020).
